Measurements reported in PubChem BioAssay AID2685 (National Center for Advancing Translational Sciences (NCATS), 2010).
This is one part of the list. Shown are side measurements of this screen, not its main read-out; they come without a call. The list favours compounds with an active or inconclusive main result. Words in brackets tell the shape of the fitted curve; partial curves, single points and poor fits give uncertain potencies.

Test: qHTS Assay for Lipid Storage Modulators in Drosophila S3 Cells;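 on cell number change: cells counted by Cell Tracker Red CMTPX staining in the red channel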
Settings: BODIPY lipid droplet fluorescence, 18-24 h; for cell number change: measured here: cell count max response, cells fed with added oleic acid
Procedure, shortened: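 Laser-scanning cytometry quantifies lipid droplet accumulation (500–530 nm total intensity; droplet/cell object ratio) in oleic acid-fed (400 uM added) Drosophila S3 cells treated with a concentration series. 20 uM Triacsin C defined 100% inhibition.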

[1] = measured here: cell number channel AC50, cells fed with added oleic acid
[2] = measured here: lipid fluorescence (Fed channel) AC50, cells fed with added oleic acid

## O=C(COC(=O)/C=C/c1ccc(C(F)(F)F)cc1)NC(=O)NCc1ccco1
  cell number change: -43.8%
[1]
  AC50: 29.1 µM [falling, single point]
[2]
  AC50: 3.66 µM [rising, partial curve, poor fit]

## CC1(C)Cc2ccccc2C(=NC(Cc2c[nH]c3ccccc23)C(=O)O)N1 (configuration not stated)
  cell number change: 2.89%

## Cc1ccc(S(=O)(=O)N(C)C)cc1NC(=O)c1ccc(OC(F)(F)F)cc1
  cell number change: -14.1%
[1]
  AC50: 6.51 µM [rising, single point]
[2]
  AC50: 4.11 µM [falling, full curve, poor fit]

## C=CCn1c(SCc2nc3cc(C(=O)OC)ccc3c(=O)[nH]2)nc2sc(CC)cc2c1=O
  cell number change: 20.8%
[2]
  AC50: 3.66 µM [rising, partial curve, poor fit]

## COCCn1c(-c2ccsc2)nc2c1c(=O)[nH]c(=O)n2CC(C)C
  cell number change: 83.9%
[1]
  AC50: 8.2 µM [rising, partial curve]

## CCCCn1c(N)c(N(Cc2ccccc2)C(=O)COc2ccccc2F)c(=O)[nH]c1=O
  cell number change: 10%

## Cc1ccc(SC(C)C(=O)N2CCN(c3ccccc3)CC2)cc1 (configuration not stated)
  cell number change: -7.67%

## NNC(=O)CN1C(c2cccc(Cl)c2)=Nc2ccc(Br)cc2C1c1ccccc1 (configuration not stated)
  cell number change: 5.29%
[2]
  AC50: 0.82 µM [rising, full curve, poor fit]

## CN(C(=O)c1sc2nc(N3CCCC3)c3c(c2c1N)CC(C)(C)OC3)c1ccccc1
  cell number change: -11.6%
[2]
  AC50: 6.51 µM [rising, single point]

## O=C(COC(=O)c1ccccn1)NC12CC3CC(CC(C3)C1)C2
  cell number change: -23.1%
[2]
  AC50: 29.1 µM [falling, single point]

## COCCNC(=O)Cc1ccc(F)cc1
  cell number change: 84.3%
[1]
  AC50: 0.58 µM [rising, single point]
[2]
  AC50: 29.1 µM [rising, single point]

## CCOC(=O)C(Cc1ccc(NC(=O)/C(=C/c2ccc(OC(C)=O)cc2)NC(C)=O)cc1)N1C(=O)c2ccccc2C1=O (configuration not stated)
  cell number change: -19.1%
[1]
  AC50: 2.91 µM [falling, partial curve]

## Cc1nn(CC(C)C)c(Cl)c1C(=O)N(C)CC(=O)Nc1c(Cl)cccc1Cl
  cell number change: 10.1%
[2]
  AC50: 2.06 µM [falling, single point]

## COc1cc(CNCc2cccc(OC)c2OC)cc(OC)c1
  cell number change: -18.2%
[2]
  AC50: 6.51 µM [falling, single point]

## COC(=O)c1nc(NC(=O)c2ccccc2Br)n[nH]1
  cell number change: 70.6%

## CCc1ccc(CNc2ccc(N3CCN(C(C)=O)CC3)cc2)cc1
  cell number change: 1.26%
[2]
  AC50: 29.1 µM [rising, single point]

## CC(=O)N/N=C/C1=CCC2CC1C2(C)C (configuration not stated)
  cell number change: -12.2%
[2]
  AC50: 1.03 µM [falling, full curve, poor fit]

## COc1ccc(NC(=O)/C(C#N)=C/c2ccc(Sc3nncn3C)c([N+](=O)[O-])c2)cc1
  cell number change: -29.2%
[2]
  AC50: 22.4 µM [falling, partial curve, poor fit]

## CCCOc1nc2c(c(=O)n(C)c(=O)n2C)n1Cc1cccc2ccccc12
  cell number change: -38.3%
[1]
  AC50: 16.4 µM [falling, single point]

## COc1cc(CC(=O)OCC(=O)N2CC(=O)Nc3ccccc32)cc(OC)c1OC
  cell number change: 10.1%
[1]
  AC50: 2.59 µM [rising, single point]

## COc1ccc(-c2[nH]ncc2N=Nc2ccccc2)cc1
  cell number change: 5.48%
[1]
  AC50: 0.731 µM [rising, single point]
[2]
  AC50: 0.651 µM [rising, single point]

## COCCN1C(=O)N(c2ccc(Cl)cc2)C(=O)C1CC(=O)Nc1cc(OC)cc(OC)c1 (configuration not stated)
[2]
  AC50: 13 µM [rising, partial curve]

## Cc1nnc(SCC(=O)N(CC(C)C)C2CCS(=O)(=O)C2)n1N (configuration not stated)
  cell number change: -8.4%
[2]
  AC50: 1.64 µM [rising, partial curve, poor fit]

## CCCC(C)C(=O)Nc1ccc(C(N)=O)cc1 (configuration not stated)
  cell number change: -91.9%
[1]
  AC50: 16.4 µM [falling, partial curve]
[2]
  AC50: 18.4 µM [falling, partial curve]

## CCCCn1c(SCC(=O)NNC(=O)c2ccco2)nnc1-c1ccco1
  cell number change: 17.8%
[1]
  AC50: 3.66 µM [falling, single point]

## O=C(NCc1ccco1)C1CCCN1C(=O)Nc1ccccc1 (configuration not stated)
  cell number change: -2.73%
[1]
  AC50: 0.58 µM [falling, single point]

## Cc1cc(OCC(=O)N(C)Cc2ccccc2)ccc1Cl
  cell number change: 2.16%
[2]
  AC50: 7.31 µM [rising, partial curve, poor fit]

## COc1ccc(CCNC(=O)CC(C)(C)CC2=NS(=O)(=O)c3ccccc3N2)cc1OC
[2]
  AC50: 29.1 µM [falling, single point]

## CC(C(=O)O)n1nc2ccccc2n1 (configuration not stated)
  cell number change: -5.31%
[2]
  AC50: 0.731 µM [rising, single point]

## COc1ccc2nc(NC(=O)Nc3ccccc3OC)sc2c1
[2]
  AC50: 6.51 µM [falling, partial curve]

## CC(C)C[C@H]1CN=C(Nc2ccccc2)N1CCc1ccc(F)cc1
  cell number change: 11.7%
[1]
  AC50: 6.51 µM [falling, single point]
[2]
  AC50: 3.26 µM [falling, single point]

## CCC(C)OC(=O)c1[nH]c2c(c1C)C(=O)CC(c1ccc(N(C)C)cc1)C2 (configuration not stated)
[1]
  AC50: 0.184 µM [rising, full curve, poor fit]

## O=C(/C=C/c1ccc2c(c1)OCO2)Nc1nc(-c2ccccc2)cs1
  cell number change: -40.1%
[1]
  AC50: 32.6 µM [falling, partial curve]

## Cc1cc(NS(=O)(=O)c2ccc(NC(=O)CSc3nc4ncc(Cl)cc4[nH]3)cc2)nc(C)n1
  cell number change: -10.4%
[2]
  AC50: 0.58 µM [falling, full curve]

## CCCc1cc(=O)oc2cc(OC(C)C(=O)NCC3CCC(C(=O)O)CC3)ccc12 (configuration not stated)
  cell number change: 1.62%

## COc1cccc2c1C(=O)c1c(O)c3c(c(O)c1C2=O)C[C@](O)(C(C)=O)C[C@H]3O[C@@H]1C[C@@H](N)[C@@H](O)[C@@H](C)O1
  cell number change: -92.8%
[1]
  AC50: 29.1 µM [falling, single point]
[2]
  AC50: 3.26 µM [falling, partial curve]

## CCOC(=O)c1cnc2ccc(C(=O)OC)cc2c1NCc1ccco1
  cell number change: -8.83%
[2]
  AC50: 6.51 µM [rising, single point]
